Measurements: the supplement of paper PMC10849652
This is one part of the list.

Sequences of proteins named here, by UniProt entry; tags and fusion partners are left off. A change or cut given only in a name is not applied to a line headed by its entry.
UniProt Q16698: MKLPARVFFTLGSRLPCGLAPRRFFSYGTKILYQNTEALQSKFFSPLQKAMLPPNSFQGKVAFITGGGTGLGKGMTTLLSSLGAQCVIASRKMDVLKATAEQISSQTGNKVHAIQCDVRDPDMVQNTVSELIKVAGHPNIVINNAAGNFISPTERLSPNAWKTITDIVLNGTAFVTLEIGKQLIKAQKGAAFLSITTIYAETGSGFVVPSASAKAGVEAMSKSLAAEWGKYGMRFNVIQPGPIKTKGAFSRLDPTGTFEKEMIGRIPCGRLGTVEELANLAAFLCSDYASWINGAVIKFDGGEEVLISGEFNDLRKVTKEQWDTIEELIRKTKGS
UniProt Q02127: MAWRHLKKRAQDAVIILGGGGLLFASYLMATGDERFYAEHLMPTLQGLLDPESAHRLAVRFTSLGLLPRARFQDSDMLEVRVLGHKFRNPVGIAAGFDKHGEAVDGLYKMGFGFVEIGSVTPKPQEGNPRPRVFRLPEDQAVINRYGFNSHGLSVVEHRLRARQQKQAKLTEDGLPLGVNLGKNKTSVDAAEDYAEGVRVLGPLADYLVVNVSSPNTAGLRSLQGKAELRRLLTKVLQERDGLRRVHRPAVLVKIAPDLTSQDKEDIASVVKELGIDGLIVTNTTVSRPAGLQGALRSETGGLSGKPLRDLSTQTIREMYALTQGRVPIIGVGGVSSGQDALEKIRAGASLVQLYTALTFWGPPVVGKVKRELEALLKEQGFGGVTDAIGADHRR
UniProt P17661, whole entry, looked up: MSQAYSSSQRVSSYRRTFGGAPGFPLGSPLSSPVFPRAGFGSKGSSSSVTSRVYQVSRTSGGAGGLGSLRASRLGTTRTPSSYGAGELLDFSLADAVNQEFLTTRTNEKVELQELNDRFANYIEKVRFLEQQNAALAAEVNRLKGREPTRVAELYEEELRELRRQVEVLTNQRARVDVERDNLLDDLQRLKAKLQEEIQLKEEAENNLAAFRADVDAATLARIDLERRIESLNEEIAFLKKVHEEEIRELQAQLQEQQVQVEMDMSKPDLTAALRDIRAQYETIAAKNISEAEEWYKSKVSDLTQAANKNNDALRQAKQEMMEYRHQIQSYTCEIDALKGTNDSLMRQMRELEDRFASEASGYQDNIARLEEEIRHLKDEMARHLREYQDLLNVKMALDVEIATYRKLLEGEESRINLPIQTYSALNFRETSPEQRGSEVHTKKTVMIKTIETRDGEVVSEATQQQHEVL
UniProt Q9NY93: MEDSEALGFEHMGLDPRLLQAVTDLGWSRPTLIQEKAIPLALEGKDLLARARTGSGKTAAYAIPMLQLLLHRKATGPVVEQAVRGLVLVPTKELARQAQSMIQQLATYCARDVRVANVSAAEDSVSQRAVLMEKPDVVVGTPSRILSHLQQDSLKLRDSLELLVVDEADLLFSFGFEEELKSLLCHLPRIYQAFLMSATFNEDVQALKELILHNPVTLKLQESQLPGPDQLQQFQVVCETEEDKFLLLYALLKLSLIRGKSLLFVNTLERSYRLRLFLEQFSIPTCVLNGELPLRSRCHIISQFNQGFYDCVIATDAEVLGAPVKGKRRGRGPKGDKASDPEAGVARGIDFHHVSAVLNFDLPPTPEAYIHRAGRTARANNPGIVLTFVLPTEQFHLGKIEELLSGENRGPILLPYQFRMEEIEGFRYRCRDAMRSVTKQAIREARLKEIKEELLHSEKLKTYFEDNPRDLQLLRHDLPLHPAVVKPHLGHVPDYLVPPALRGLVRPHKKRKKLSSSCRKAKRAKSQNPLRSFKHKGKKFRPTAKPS
UniProt Q96GE9: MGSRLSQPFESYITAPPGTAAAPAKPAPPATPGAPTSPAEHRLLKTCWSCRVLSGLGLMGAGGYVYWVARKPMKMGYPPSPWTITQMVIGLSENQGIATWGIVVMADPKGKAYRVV
UniProt O60832: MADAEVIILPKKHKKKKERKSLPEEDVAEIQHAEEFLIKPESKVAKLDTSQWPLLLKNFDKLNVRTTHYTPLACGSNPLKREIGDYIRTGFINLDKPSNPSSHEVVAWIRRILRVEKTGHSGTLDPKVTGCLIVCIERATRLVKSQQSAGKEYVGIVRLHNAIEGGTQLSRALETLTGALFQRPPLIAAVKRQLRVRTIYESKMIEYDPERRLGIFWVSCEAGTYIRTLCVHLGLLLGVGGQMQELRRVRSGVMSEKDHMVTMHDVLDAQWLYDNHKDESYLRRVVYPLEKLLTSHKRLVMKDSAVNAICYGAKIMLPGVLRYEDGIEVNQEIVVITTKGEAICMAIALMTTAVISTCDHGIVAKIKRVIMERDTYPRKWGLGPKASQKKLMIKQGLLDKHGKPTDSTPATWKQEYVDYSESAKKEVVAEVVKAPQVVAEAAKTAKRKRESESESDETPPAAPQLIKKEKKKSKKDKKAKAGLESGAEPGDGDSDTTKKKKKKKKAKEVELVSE
UniProt Q14689: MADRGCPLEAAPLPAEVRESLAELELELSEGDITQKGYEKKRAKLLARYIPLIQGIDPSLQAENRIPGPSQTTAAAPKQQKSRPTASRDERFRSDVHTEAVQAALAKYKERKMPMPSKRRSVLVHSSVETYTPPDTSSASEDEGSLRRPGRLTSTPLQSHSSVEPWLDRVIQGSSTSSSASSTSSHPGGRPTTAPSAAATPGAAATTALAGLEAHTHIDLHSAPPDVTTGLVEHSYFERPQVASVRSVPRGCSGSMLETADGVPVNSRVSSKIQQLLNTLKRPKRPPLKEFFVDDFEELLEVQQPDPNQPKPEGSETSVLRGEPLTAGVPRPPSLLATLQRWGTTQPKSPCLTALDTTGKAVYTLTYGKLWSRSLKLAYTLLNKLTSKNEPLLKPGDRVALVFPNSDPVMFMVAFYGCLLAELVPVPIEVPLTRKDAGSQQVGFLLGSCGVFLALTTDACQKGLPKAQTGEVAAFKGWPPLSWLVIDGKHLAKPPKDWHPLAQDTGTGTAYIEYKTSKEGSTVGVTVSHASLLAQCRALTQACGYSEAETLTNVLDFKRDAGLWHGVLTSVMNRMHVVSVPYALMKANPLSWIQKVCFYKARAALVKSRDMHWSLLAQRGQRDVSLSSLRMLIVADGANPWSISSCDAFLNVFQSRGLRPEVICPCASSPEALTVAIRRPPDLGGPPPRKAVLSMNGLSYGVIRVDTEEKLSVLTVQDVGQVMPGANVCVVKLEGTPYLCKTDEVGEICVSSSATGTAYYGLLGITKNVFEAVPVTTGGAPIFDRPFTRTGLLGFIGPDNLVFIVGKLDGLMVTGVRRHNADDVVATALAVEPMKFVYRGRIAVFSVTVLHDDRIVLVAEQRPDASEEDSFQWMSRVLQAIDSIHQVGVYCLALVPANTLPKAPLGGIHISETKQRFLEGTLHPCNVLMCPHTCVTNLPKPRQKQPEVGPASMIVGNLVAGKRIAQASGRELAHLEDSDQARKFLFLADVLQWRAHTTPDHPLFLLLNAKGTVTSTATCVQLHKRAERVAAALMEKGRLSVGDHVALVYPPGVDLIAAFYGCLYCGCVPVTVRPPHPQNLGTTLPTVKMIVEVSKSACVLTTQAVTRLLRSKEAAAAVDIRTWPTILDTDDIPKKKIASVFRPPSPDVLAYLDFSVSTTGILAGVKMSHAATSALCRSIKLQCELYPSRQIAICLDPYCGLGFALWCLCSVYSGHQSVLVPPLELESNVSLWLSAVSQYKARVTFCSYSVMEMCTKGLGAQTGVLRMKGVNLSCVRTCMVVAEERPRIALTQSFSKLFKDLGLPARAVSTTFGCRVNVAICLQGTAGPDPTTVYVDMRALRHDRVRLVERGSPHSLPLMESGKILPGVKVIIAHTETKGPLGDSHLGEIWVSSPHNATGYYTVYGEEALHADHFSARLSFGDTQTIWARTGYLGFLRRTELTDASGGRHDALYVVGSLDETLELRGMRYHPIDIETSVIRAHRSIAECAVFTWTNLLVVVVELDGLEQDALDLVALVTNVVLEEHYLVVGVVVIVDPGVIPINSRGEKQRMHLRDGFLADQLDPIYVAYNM
UniProt Q92620: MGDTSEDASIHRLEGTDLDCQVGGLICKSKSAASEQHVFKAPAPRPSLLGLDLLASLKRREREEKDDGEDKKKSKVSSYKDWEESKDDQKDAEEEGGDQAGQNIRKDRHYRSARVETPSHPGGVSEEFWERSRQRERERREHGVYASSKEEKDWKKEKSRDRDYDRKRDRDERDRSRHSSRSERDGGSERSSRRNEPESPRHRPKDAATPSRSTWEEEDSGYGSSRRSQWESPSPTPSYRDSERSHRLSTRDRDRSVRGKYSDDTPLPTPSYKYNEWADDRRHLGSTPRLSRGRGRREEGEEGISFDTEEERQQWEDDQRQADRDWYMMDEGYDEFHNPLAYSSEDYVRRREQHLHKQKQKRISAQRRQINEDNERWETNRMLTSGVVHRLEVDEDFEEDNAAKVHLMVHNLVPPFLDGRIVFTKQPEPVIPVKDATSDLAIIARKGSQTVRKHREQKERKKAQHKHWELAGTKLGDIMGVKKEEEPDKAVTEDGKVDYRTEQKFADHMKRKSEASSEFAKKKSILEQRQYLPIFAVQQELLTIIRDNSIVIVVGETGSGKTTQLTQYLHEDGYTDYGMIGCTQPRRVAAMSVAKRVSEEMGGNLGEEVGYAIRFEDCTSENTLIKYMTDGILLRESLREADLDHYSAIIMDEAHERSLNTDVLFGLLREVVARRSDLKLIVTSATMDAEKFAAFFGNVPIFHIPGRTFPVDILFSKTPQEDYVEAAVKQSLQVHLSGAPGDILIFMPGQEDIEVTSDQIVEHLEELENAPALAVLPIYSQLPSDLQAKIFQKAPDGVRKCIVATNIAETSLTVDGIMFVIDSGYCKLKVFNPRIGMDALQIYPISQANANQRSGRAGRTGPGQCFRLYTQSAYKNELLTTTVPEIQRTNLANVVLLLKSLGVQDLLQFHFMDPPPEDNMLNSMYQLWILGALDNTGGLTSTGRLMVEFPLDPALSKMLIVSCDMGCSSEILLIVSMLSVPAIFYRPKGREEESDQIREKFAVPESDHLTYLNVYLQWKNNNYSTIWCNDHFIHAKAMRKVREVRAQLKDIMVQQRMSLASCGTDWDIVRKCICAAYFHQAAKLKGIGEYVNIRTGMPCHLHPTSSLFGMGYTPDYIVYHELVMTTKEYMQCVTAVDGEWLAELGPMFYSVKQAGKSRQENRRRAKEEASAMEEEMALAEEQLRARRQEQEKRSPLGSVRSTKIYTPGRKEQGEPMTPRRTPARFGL
UniProt Q9BUQ8: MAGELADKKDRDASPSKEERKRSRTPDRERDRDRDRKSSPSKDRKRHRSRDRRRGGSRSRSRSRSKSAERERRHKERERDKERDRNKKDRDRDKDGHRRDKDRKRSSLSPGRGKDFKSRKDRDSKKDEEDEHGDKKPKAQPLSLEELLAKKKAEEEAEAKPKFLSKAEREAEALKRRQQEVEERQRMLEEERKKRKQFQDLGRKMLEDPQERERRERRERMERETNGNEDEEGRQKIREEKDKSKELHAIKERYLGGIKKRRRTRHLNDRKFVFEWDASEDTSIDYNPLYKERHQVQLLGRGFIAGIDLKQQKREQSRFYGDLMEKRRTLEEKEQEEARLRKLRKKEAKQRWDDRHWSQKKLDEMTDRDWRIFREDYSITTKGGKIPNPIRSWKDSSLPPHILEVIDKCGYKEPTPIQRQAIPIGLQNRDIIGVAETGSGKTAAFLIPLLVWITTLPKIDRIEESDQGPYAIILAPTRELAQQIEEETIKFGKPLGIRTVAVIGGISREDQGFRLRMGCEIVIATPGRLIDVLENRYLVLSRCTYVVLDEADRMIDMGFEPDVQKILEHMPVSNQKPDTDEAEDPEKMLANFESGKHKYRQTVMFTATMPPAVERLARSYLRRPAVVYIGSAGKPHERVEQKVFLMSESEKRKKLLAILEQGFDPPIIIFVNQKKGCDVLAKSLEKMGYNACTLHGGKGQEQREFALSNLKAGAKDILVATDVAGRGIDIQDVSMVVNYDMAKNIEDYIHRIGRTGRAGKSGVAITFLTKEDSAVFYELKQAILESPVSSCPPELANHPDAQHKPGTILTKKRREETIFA
UniProt Q86SQ9: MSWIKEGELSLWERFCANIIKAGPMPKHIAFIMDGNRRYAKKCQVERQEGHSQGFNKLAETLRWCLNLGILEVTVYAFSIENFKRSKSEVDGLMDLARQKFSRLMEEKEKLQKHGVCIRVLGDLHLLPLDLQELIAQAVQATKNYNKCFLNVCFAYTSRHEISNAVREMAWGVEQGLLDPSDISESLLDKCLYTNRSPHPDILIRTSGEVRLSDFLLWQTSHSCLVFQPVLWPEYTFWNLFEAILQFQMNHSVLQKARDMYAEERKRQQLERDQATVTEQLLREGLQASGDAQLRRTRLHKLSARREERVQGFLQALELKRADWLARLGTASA

How the values were obtained:
Experiment in all cases: log2 fold change, soluble protein after heating vs DMSO (PISA); higher = thermal stabilisation; K562 cells, 10 uM, 30 min; active = over 0.2 and 3.5 SD of the protein, either way, in both replicates (recomputed)
[1] = compound: CC1=C(C=C(C=C1)NC(=O)C2=CC(=CC=C2)C(C)(C)C#N)NC3=CC4=C(C=C3)N=CN(C4=O)C
Summary of the method: (§1)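 K562 cells at 2×10^6 cells/mL were exposed to 10 μM compound for 30 min, then aliquots were heated for 3 min across 48°C-58°C, pooled, and extracted in PBS containing 0.5% NP-40 at 4°C. The supernatant after 21,000xg for 90 min was taken as soluble protein and measured by TMTpro 16plex LC-MS/MS with channel sums equalised. Thermal stability is reported relative to control samples, with values from duplicates. Fold changes are given on a log2 scale.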

[2] = compound: CC1=C(C=C(C=C1)NC(=O)C2=CC(=CC=C2)N(C)C)NC(=O)C3=CC=C(C=C3)O
Summary of the method: as §1

[3] = compound: CC1=CC=C(C=C1)SC2=C3C=C(SC3=CN=C2)C(=O)N
Summary of the method: as §1

[4] = compound: CC1=NC(=CC=C1)C2=C(N=C(N2)C(C)(C)C)C3=CC4=NC=CN=C4C=C3
Summary of the method: as §1

Nexturastat A = compound: CCCCN(Cc1ccc(C(=O)NO)cc1)C(=O)Nc1ccccc1 [Nexturastat A]
Summary of the method: as §1

vemurafenib = compound: CCCS(=O)(=O)Nc1ccc(F)c(C(=O)c2c[nH]c3ncc(-c4ccc(Cl)cc4)cc23)c1F [vemurafenib]
Summary of the method: as §1

[5] = compound: CCCS(=O)(=O)Nc1ccc(F)c(C(=O)c2c[nH]c3ncc(Cl)cc23)c1F
Summary of the method: as §1

[6] = compound: CCCc1cc(C)[nH]c(=O)c1CNC(=O)c1cc(-c2ccnc(N3CCN(C)CC3)c2)cc2c1cnn2C(C)C
Summary of the method: as §1

givinostat = compound: CCN(CC)Cc1ccc2cc(COC(=O)Nc3ccc(C(=O)NO)cc3)ccc2c1 [givinostat]
Summary of the method: as §1

barasertib = compound: CCN(CCCOc1ccc2c(Nc3cc(CC(=O)Nc4cccc(F)c4)[nH]n3)ncnc2c1)CCOP(=O)(O)O [barasertib]
Summary of the method: as §1

[7] = compound: CC[C@@H]1C(=O)N(C)c2cnc(Nc3ccc(C(=O)NC4CCN(C)CC4)cc3OC)nc2N1C1CCCC1
Summary of the method: as §1

volasertib = compound: CC[C@@H]1C(=O)N(C)c2cnc(Nc3ccc(C(=O)N[C@H]4CC[C@H](N5CCN(CC6CC6)CC5)CC4)cc3OC)nc2N1C(C)C [volasertib]
Summary of the method: as §1

[8] = compound: CC[C@H](C)N1C=C(C2=C(C=C(C=C21)C3=CN=C(C=C3)N4CCNCC4)C(=O)NCC5=C(C=C(NC5=O)C)C)C
Summary of the method: as §1

epoxomicin = compound: CC[C@H](C)[C@@H](C(=O)N[C@@H]([C@@H](C)O)C(=O)N[C@@H](CC(C)C)C(=O)[C@]1(CO1)C)NC(=O)[C@H]([C@@H](C)CC)N(C)C(=O)C [epoxomicin]
Summary of the method: as §1

[9] = compound: CCn1c(C(=O)N(C2CC2)C2CC2)cc2c3c(ncn3C)c(Nc3cc(C)n(C)n3)nc21
Summary of the method: as §1

[10] = compound: CCn1cc(-c2ccnc3[nH]c(-c4cccc(CN(C)C)c4)cc23)c(-c2ccc(NC(=O)N(C)C)cc2)n1
Summary of the method: as §1

[11] = compound: CN(C)CC(=O)Nc1ccc2[nH]c(=O)c3ccccc3c2c1
Summary of the method: as §1

rosiglitazone = compound: CN(CCOC1=CC=C(C=C1)C[C@H]2C(=O)NC(=O)S2)C3=CC=CC=N3 (racemic) [rosiglitazone]
Summary of the method: as §1

[12] = compound: CN1C2=C(C3=C1C(=O)N(N=C3)CC4=CC(=CC=C4)N)SC(=C2)S(=O)C
Summary of the method: as §1

[13] = compound: CN1CCC(CNc2ccc3ncc(-c4cccc(OC(F)(F)F)c4)n3n2)CC1
Summary of the method: as §1

Measured: log2 fold change

DGCR8 (UniProt Q8WYQ5)
inactive: [1] 0.008 | [2] -0.051 | [3] -0.087 | [4] -0.183 | Nexturastat A 0.207 | vemurafenib 0.049 | [5] 0 | [6] 0.172 | givinostat 0.082 | barasertib -0.224 | [7] 0.308 | volasertib -0.039 | [8] 0.031 | epoxomicin -0.247 | [9] 0.033 | [10] 0.184 | [11] -0.108 | rosiglitazone 0.168 | [12] 0.338 | [13] 0.216

DDA1 (UniProt Q9BW61)
inactive: [1] 0.001 | [2] -0.018 | [3] -0.017 | [4] 0.086 | Nexturastat A -0.107 | vemurafenib -0.014 | [5] -0.008 | [6] 0.025 | givinostat -0.035 | barasertib 0.019 | [7] -0.015 | volasertib -0.061 | [8] 0.094 | epoxomicin 0.065 | [9] -0.044 | [10] 0.034 | [11] 0.007 | rosiglitazone 0.041 | [12] -0.003 | [13] -0.006

DECR1 (UniProt Q16698)
inactive: [1] 0.002 | [2] -0.007 | [3] 0.004 | [4] 0.002 | Nexturastat A -0.057 | vemurafenib 0.023 | [5] 0.022 | [6] 0.005 | givinostat -0.036 | barasertib -0.009 | [7] -0.019 | volasertib 0.022 | [8] -0.002 | epoxomicin 0.051 | [9] -0.03 | [10] -0.021 | [11] 0.008 | rosiglitazone -0.002 | [12] -0.061 | [13] 0.138

DHODH (UniProt Q02127)
inactive: [1] 0.007 | [2] -0.006 | [3] -0.042 | [4] -0.009 | Nexturastat A -0.014 | vemurafenib -0.035 | [5] -0.064 | [6] -0.026 | givinostat -0.017 | barasertib -0.016 | [7] 0.019 | volasertib 0.067 | [8] -0.037 | epoxomicin 0.023 | [9] 0.012 | [10] -0.006 | [11] -0.017 | rosiglitazone 0.013 | [12] -0.041 | [13] 0.022

DLAT (UniProt P10515)
inactive: [1] 0.02 | [2] -0.016 | [3] -0.011 | [4] -0.094 | Nexturastat A 0.16 | vemurafenib -0.079 | [5] -0.061 | [6] 0.095 | givinostat 0.095 | barasertib -0.083 | [7] 0.061 | volasertib 0.23 | [8] -0.018 | epoxomicin -0.111 | [9] 0.115 | [10] 0.107 | [11] -0.029 | rosiglitazone -0.091 | [12] 0.143 | [13] 0.118

DNAH9 (UniProt Q9NYC9)
inactive: [1] -0.013 | [2] 0.019 | [3] 0.001 | [4] 0.067 | Nexturastat A -0.076 | vemurafenib -0.014 | [5] 0.019 | [6] 0.016 | givinostat -0.018 | barasertib 0 | [7] 0.037 | volasertib 0.029 | [8] -0.042 | epoxomicin 0.01 | [9] 0.057 | [10] -0.007 | [11] -0.039 | rosiglitazone 0.02 | [12] -0.075 | [13] -0.033

DES (UniProt P17661)
inactive: [1] -0.281 | [2] 0.014 | [3] -0.01 | [4] -0.305 | Nexturastat A 0.286 | vemurafenib -0.001 | [5] -0.029 | [6] 0.148 | givinostat 0.108 | barasertib -0.008 | [7] 0.091 | volasertib 0.088 | [8] -0.104 | epoxomicin -0.041 | [9] -0.011 | [10] 0.146 | [11] -0.072 | rosiglitazone -0.023 | [12] 0.187 | [13] -0.001

DDX56 (UniProt Q9NY93)
inactive: [1] 0.14 | [2] -0.06 | [3] -0.014 | [4] -0.017 | Nexturastat A 0.275 | vemurafenib 0.068 | [5] 0.077 | [6] 0.036 | givinostat 0.078 | barasertib -0.049 | [7] -0.023 | volasertib 0.266 | [8] -0.041 | epoxomicin -0.026 | [9] -0.003 | [10] 0.047 | [11] 0.016 | rosiglitazone -0.047 | [12] 0.259 | [13] 0.391

DMAC1 (UniProt Q96GE9)
inactive: [1] -0.173 | [2] 0.041 | [3] 0.116 | [4] 0.005 | Nexturastat A -0.071 | vemurafenib -0.18 | [5] -0.035 | [6] -0.04 | givinostat -0.179 | barasertib 0.074 | [7] 0.269 | volasertib 0.016 | [8] -0.038 | epoxomicin -0.084 | [10] -0.041 | [11] 0.001 | [12] -0.007 | [13] 0.015

DKC1 (UniProt O60832)
inactive: [1] -0.029 | [2] 0.006 | [3] -0.049 | [4] -0.047 | Nexturastat A 0.129 | vemurafenib -0.03 | [5] -0.028 | [6] 0.03 | givinostat 0.032 | barasertib -0.095 | [7] 0.244 | volasertib 0.193 | [8] -0.042 | epoxomicin -0.059 | [9] 0.007 | [10] 0.122 | [11] -0.038 | rosiglitazone -0.095 | [12] 0.144 | [13] 0.237

DIP2A (UniProt Q14689)
inactive: [1] 0.032 | [2] -0.013 | [3] -0.007 | [4] 0.07 | Nexturastat A -0.119 | vemurafenib 0.05 | [5] -0.009 | [6] 0.336 | givinostat -0.05 | barasertib 0.118 | [7] -0.065 | volasertib 0.026 | [8] -0.037 | epoxomicin -0.017 | [10] -0.063 | [11] -0.041 | [12] -0.045 | [13] 0.057

DHX38 (UniProt Q92620)
inactive: [1] -0.01 | [2] 0.022 | [3] -0.035 | [4] -0.002 | Nexturastat A -0.001 | vemurafenib -0.014 | [5] 0.002 | [6] 0.007 | givinostat -0.027 | barasertib 0.01 | [7] 0.039 | volasertib -0.02 | [8] 0.01 | epoxomicin -0.007 | [9] 0.018 | [10] 0.003 | [11] -0.009 | rosiglitazone 0.008 | [12] -0.072 | [13] 0.03

DDX23 (UniProt Q9BUQ8)
inactive: [1] 0.109 | [2] 0.035 | [3] -0.173 | [4] -0.079 | Nexturastat A 0.253 | vemurafenib -0.064 | [5] -0.012 | [6] 0.038 | givinostat 0.072 | barasertib -0.089 | [7] 0.157 | volasertib 0.239 | [8] 0.006 | epoxomicin -0.122 | [9] -0.063 | [10] 0.207 | [11] -0.07 | rosiglitazone -0.145 | [12] 0.228 | [13] 0.336

DHRS3 (UniProt O75911)
inactive: [1] 0.075 | [2] -0.037 | [3] 0.019 | [4] 0.027 | Nexturastat A -0.037 | vemurafenib -0.078 | [5] -0.04 | [6] -0.035 | givinostat -0.051 | barasertib -0.048 | [7] 0.134 | volasertib 0.02 | [8] 0.02 | epoxomicin -0.002 | [10] 0.001 | [11] -0.054 | [12] -0.062 | [13] 0.056

DHDDS isoform 2 (UniProt Q86SQ9)
inactive: [1] -0.042 | [2] 0.01 | [3] -0.103 | [4] 0.082 | Nexturastat A -0.094 | vemurafenib 0.024 | [5] 0.077 | [6] -0.038 | givinostat 0.008 | barasertib 0.1 | [7] 0.053 | volasertib 0.021 | [8] -0.022 | epoxomicin -0.006 | [9] -0.006 | [10] 0.02 | [11] 0.061 | rosiglitazone -0.012 | [12] -0.058 | [13] 0.134

DDX1 (UniProt Q92499)
inactive: [1] 0.087 | [2] -0.021 | [3] -0.002 | [4] -0.034 | Nexturastat A 0.151 | vemurafenib -0.007 | [5] 0.004 | [6] 0.059 | givinostat 0.05 | barasertib 0.018 | [7] 0.12 | volasertib 0.042 | [8] 0.051 | epoxomicin 0.057 | [9] -0.074 | [10] -0.031 | [11] 0.009 | rosiglitazone -0.006 | [12] 0.131 | [13] 0.078
